These are yes or no findings as the source states them, for the method shown. Some binding calls cover weakened binding; strength is not graded here.
Molecular target: T1, recombinant human PlGF-2 (produced in Pichia) (human) (UniProt P49763)
T1 sequence (looked up): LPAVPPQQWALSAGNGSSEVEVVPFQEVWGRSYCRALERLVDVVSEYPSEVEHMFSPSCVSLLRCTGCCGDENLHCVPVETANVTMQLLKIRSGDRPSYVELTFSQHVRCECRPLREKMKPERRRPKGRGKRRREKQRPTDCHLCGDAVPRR
Assay: Biacore, rhuPlGF-2 (Pichia) immobilized on a CM5 chip, rhuFlt-1/Fc injected after buffer, 16D3 or 16D3 Fab

Chains of the proteins cited; added tags and fusions are not shown. Lines headed by an entry give the natural chain unless they say otherwise; changes in a name come on top. Residues count along the entry.
UniProt P17948, residues 27-687: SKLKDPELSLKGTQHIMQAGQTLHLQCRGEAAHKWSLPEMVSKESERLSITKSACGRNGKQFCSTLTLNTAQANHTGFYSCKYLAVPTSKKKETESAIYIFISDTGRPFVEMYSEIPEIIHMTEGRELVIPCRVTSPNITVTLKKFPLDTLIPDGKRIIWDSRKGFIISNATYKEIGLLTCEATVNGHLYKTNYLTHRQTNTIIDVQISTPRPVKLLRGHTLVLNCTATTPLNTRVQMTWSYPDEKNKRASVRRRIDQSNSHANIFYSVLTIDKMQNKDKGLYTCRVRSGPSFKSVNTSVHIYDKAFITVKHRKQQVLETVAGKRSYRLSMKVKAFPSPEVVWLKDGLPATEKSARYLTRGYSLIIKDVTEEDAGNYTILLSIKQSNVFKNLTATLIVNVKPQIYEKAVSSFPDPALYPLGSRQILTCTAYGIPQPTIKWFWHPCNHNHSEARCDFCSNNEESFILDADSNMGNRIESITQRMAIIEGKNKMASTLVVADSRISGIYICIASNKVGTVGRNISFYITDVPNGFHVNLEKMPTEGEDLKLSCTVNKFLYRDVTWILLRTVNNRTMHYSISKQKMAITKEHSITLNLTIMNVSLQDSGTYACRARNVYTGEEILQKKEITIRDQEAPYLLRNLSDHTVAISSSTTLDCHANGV

binding: binds
Substance: rhuFlt-1/Fc Chimera (R&D Systems) (from UniProt P17948 27-687) (Fc fusion)

— patent US20110123525A1 (THROMBOGENICS N V, published 2011)
